Experimental data as given in US20240309014A1, “MACROCYCLIC COMPOUNDS AND USES THEREOF” (President and Fellows of Harvard College, priority 2017, published 2024).
For at least one compound, name, drawing or mass did not settle the structure.

System: BJ normal human fibroblasts stimulated with TGF-β
Assay: TGF-β-treated BJ cells, in vitro CAF-inducing system
Format: cell-based
Conditions: defactinib 1 μmol/L
Experimental: FIG. 19A. BJ cells (normal human […] fibroblasts) were co-cultured with FaDu cells for three days in the absence (vehicle) or presence of A83-01, a potent selective TGF-β-R inhibitor, and the expression of α-SMA was analysed by immunofluorescence staining (red color). Samples were also stained with anti-pan-human cytokeratin (green color) for cancer cell staining and DAPI (blue color) for nuclear staining. FIGS. 19B-19E BJ cells were treated with Compound (1) (0.15 nmol/L in immunofluorescence staining data and indicated concentrations in western blot analysis data) and TGF-β for 2 days. FIGS. 19B-19E. Samples were stained with the indicated antibody (red color) and DAPI (blue color) for nuclear staining. FIG. 19E Western blot images and quantification of the images. […] FIGS. 19G and 19E BJ cells were pretreated with defactinib (1 μmol/L) and TGF-β for 2 days. […]
FIGS. 20A and 20B. Quantification of immunofluorescence images of BJ cells treated with TGF-β(1 ng/mL) and the indicated concentrations of Compound (1) for α-SMA (FIG. 20A), Phospho-S6-ribosomal protein (Ser235/236) (FIG. 20B). […]
Under the same experimental conditions, the enhanced formation of focal adhesions, which were detected as punctate structures with an antibody against phosphorylated FAK at tyrosine-397, after stimulation with TGF-β was decreased in BJ cells by treatment with Compound (1) (FIG. 19E). […]

In the case of `CNC(=O)c1ccc(Nc2ncc(C(F)(F)F)c(NCc3nccnc3N(C)S(C)(=O)=O)n2)cc1` [defactinib, reference compound], the “level of α-SMA expression and S6 ribosomal protein phosphorylation induced by TGF-β” value is reported as “clearly decreased”.
